Measured values: US20110129457A1
These are yes or no findings as the source states them, for the method shown. Some binding calls cover weakened binding; strength is not graded here. Tags and fused reporters may be left off the sequences shown.

Amino acid sequences for entries named in this document (tags omitted). Residues count along the entry.
UniProt Q15465, residues 25-197: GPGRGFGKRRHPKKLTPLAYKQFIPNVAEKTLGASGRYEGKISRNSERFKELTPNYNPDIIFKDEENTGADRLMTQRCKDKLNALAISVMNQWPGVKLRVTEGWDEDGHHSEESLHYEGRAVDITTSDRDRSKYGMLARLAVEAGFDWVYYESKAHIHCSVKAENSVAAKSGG

What was measured:
[1] = target: Shh649 (ShhC-Cys conjugated with DyLight 649 Maleimide) (human) (UniProt Q15465); test: FACS competition: Shh649 preincubated with protein, then Ptch1-293 cells
[2] = target: Shh649 (ShhC-Cys conjugated with DyLight 649 Maleimide) (human) (UniProt Q15465); test: FACS competition: 1 nM Shh649 preincubated with the inhibitor, then bound to Ptch1-expressing 293 cells; the blocked partner is Ptch1
[3] = target: Shh649 (ShhC-Cys conjugated with DyLight 649 Maleimide) (human) (UniProt Q15465); test: FACS competition: 0.33 nM Shh649 preincubated with 56 nM inhibitor, then bound to Ptch1 cells or 293 cells; the blocked partner is Ptch1
[4] = target: Shh649 (ShhC-Cys conjugated with DyLight 649 Maleimide) (human) (UniProt Q15465); test: FACS: 15 nM Shh649 with 520 nM Hhip1β12 on 293 cells (Hhip1β12 sticks nonspecifically to the cells and recruits Shh649) and on Ptch1 cells
[5] = target: Shh649 (ShhC-Cys conjugated with DyLight 649 Maleimide) (human) (UniProt Q15465); test: FACS: Shh649 recruited to 293 cells (data not shown)

Measured: binding

B1: Hhip1β12 (β-propeller-EGF1-EGF2, residues 193-667), C-terminal His6-tag (receptor)
chain: SNYLDQMEEYDKVEEISRKHKHNCFCIQEVVSGLRQPVGALHSGDGSQRLFILEKEGYVKILTPEGEIFKEPYLDIHKLVQSGIKGGDERGLLSLAFHPNYKKNGKLYVSYTTNQERWAIGPHDHILRVVEYTVSRKNPHQVDLRTARVFLEVAELHRKHLGGQLLFGPDGFLYIILGDGMITLDDMEEMDGLSDFTGSVLRLDVDTDMCNVPYSIPRSNPHFNSTNQPPEVFAHGLHDPGRCAVDRHPTDININLTILCSDSNGKNRSSARILQIIKGKDYESEPSLLEFKPFSNGPLVGGFVYRGCQSERLYGSYVFGDRNGNFLTLQQSPVTKQWQEKPLCLGTSGSCRGYFSGHILGFGEDELGEVYILSSSKSMTQTHNGKLYKIVDPKRPLMPEECRATVQPAQTLTSECSRLCRNGYCTPTGKCCCSPGWEGDFCRTAKCEPACRHGGVCVRPNKCLCKKGYLGPQCEHHHHHH
not listed: [5]
binds: all other assays above

B2: Hhip1β12-Fc (Fc fusion, not shown: a dimerising Fc or GST)
chain: SNYLDQMEEYDKVEEISRKHKHNCFCIQEVVSGLRQPVGALHSGDGSQRLFILEKEGYVKILTPEGEIFKEPYLDIHKLVQSGIKGGDERGLLSLAFHPNYKKNGKLYVSYTTNQERWAIGPHDHILRVVEYTVSRKNPHQVDLRTARVFLEVAELHRKHLGGQLLFGPDGFLYIILGDGMITLDDMEEMDGLSDFTGSVLRLDVDTDMCNVPYSIPRSNPHFNSTNQPPEVFAHGLHDPGRCAVDRHPTDININLTILCSDSNGKNRSSARILQIIKGKDYESEPSLLEFKPFSNGPLVGGFVYRGCQSERLYGSYVFGDRNGNFLTLQQSPVTKQWQEKPLCLGTSGSCRGYFSGHILGFGEDELGEVYILSSSKSMTQTHNGKLYKIVDPKRPLMPEECRATVQPAQTLTSECSRLCRNGYCTPTGKCCCSPGWEGDFCRTAKCEPACRHGGVCVRPNKCLCKKGYLGPQCE
not listed: [4]
binds: all other assays above
